Data as given in PubChem BioAssay AID504774 (Drosophila RNAi Screening Center, 2011).

Screen: 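Genes required for cells to withstand methyl methanesulphonate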 (primary screen)
System: Drosophila Kc167 cells
Knock-down reagent: long dsRNA against Drosophila genes, about 0.25 µg dsRNA per well
Time to read-out: about 6 days: 3 days knock-down, then 3 days with or without MMS
Treatment: methyl methanesulphonate 0.004% (w/v) for 3 days after knock-down
Detection: 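Viability in wells given MMS, read as ATP luminescence, normalised by quantiles plate by plate and averaged across replicates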
Direction: mean viability with MMS and viability with MMS: higher = more surviving cells after MMS
In all, the deposit lists about 23,000 reagents; shown is an unselected part of those that have a named target and a result. 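Values are quantile-normalised luminescence on an arbitrary scale; higher means more cells surviving MMS.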 The numbers tell different reagents against one gene apart. A plus sign joins genes that one reagent is predicted to hit.

The opening 7 entries, to show the layout:
predicted target | reagent | mean viability with MMS | viability with MMS, replicate 1 | viability with MMS, replicate 2
Arr1 (Arrestin 1) | 1 | 3.47e6 | 3.95e6 | 3.93e6
Mst98Ca (Male-specific RNA 98Ca) | 1 | 3.64e6 | 4.01e6 | 4.21e6
CG11125 | 1 | 3.54e6 | 4.02e6 | 4.01e6
RpLP0 (Ribosomal protein LP0) | 1 | 3.26e6 | 3.67e6 | 3.73e6
RpLP0 (Ribosomal protein LP0) | 2 | 2.70e6 | 3.73e6 | 3.71e6
CG6893 | 1 | 3.39e6 | 3.78e6 | 3.87e6
CG15199 | 1 | 3.48e6 | 3.96e6 | 3.92e6

The listing, from the first entry:
predicted target | reagent | mean viability with MMS | viability with MMS, replicate 1 | viability with MMS, replicate 2
Arr1 (Arrestin 1) | 1 | 3.47e6 | 3.95e6 | 3.93e6
Mst98Ca (Male-specific RNA 98Ca) | 1 | 3.64e6 | 4.01e6 | 4.21e6
CG11125 | 1 | 3.54e6 | 4.02e6 | 4.01e6
RpLP0 (Ribosomal protein LP0) | 1 | 3.26e6 | 3.67e6 | 3.73e6
RpLP0 (Ribosomal protein LP0) | 2 | 2.70e6 | 3.73e6 | 3.71e6
CG6893 | 1 | 3.39e6 | 3.78e6 | 3.87e6
CG15199 | 1 | 3.48e6 | 3.96e6 | 3.92e6
dre4 | 1 | 3.43e6 | 3.91e6 | 3.89e6
GstD10 (Glutathione S transferase D10) | 1 | 3.62e6 | 4.07e6 | 4.09e6
CG7706 | 1 | 3.52e6 | 4.10e6 | 3.89e6
CanA-14F (Calcineurin A at 14F) | 1 | 3.49e6 | 3.93e6 | 3.96e6
CanA-14F (Calcineurin A at 14F) | 2 | 3.66e6 | 4.15e6 | 4.14e6
I-3 (Inhibitor-3) | 1 | 3.50e6 | 3.99e6 | 3.97e6
Gr22a (Gustatory receptor 22a) | 1 | 3.54e6 | 4.03e6 | 3.98e6
CG17019 | 1 | 3.27e6 | 3.69e6 | 3.75e6
CG12133 | 1 | 3.58e6 | 4.12e6 | 3.98e6
dpr9 (defective proboscis extension response 9) | 1 | 3.77e6 | 4.22e6 | 4.33e6
dpr9 (defective proboscis extension response 9) | 2 | 3.60e6 | 4.37e6 | 3.82e6
dpr9 (defective proboscis extension response 9) | 3 | 3.63e6 | 4.12e6 | 4.14e6
GstD7 (Glutathione S transferase D7) | 1 | 3.53e6 | 4.08e6 | 4.02e6
CG42372 + CG30100 | 1 | 3.63e6 | 4.14e6 | 4.06e6
CG9297 | 1 | 3.49e6 | 3.98e6 | 3.91e6
Sfxn2 (Sideroflexin 2) | 1 | 3.58e6 | 4.15e6 | 3.96e6
alpha-Est10 (alpha-Esterase-10) | 1 | 3.48e6 | 4.00e6 | 3.90e6
CG34370 | 1 | 3.60e6 | 4.06e6 | 4.10e6
CG34370 | 2 | 3.52e6 | 4.03e6 | 3.96e6
CG34370 | 3 | 3.56e6 | 4.03e6 | 4.04e6
CG34370 | 4 | 3.50e6 | 3.95e6 | 3.97e6
Lar (Leukocyte-antigen-related-like) | 1 | 3.49e6 | 3.95e6 | 3.97e6
Lar (Leukocyte-antigen-related-like) | 2 | 3.54e6 | 3.93e6 | 4.12e6
shf (shifted) | 1 | 3.54e6 | 3.95e6 | 4.10e6
Muc30E (Mucin 30E) | 1 | 3.67e6 | 4.12e6 | 4.17e6
CG8620 | 1 | 3.94e6 | 4.40e6 | 4.48e6
Obp47b + CG7741 | 1 | 3.86e6 | 4.40e6 | 4.27e6
CG34460 | 1 | 3.59e6 | 4.26e6 | 3.86e6
Oseg2 (Outer segment 2) | 1 | 3.57e6 | 4.02e6 | 4.07e6
unc80 (uncoordinated 80) | 1 | 3.68e6 | 4.17e6 | 4.16e6
Nin (Ninein) | 1 | 3.52e6 | 3.98e6 | 4.00e6
CG9578 | 1 | 3.55e6 | 4.05e6 | 4.01e6
uif (uninflatable) | 1 | 3.34e6 | 3.77e6 | 3.85e6
uif (uninflatable) | 2 | 3.64e6 | 4.12e6 | 4.09e6
CG2187 | 1 | 3.64e6 | 4.09e6 | 4.16e6
CG7920 | 1 | 3.61e6 | 3.99e6 | 4.19e6
CG7920 | 2 | 3.53e6 | 3.97e6 | 4.07e6
Pxt (Peroxinectin-like) | 1 | 3.56e6 | 3.98e6 | 4.09e6
CG2604 | 1 | 3.45e6 | 3.98e6 | 3.88e6
Fadd (Fas-associated death domain) | 1 | 3.39e6 | 3.85e6 | 3.88e6
unc-104 (uncoordinated-104) | 1 | 3.58e6 | 4.10e6 | 4.01e6
CG16775 | 1 | 3.47e6 | 3.90e6 | 3.96e6
Dnaaf5 (Dynein axonemal assembly factor 5) | 1 | 3.37e6 | 3.85e6 | 3.78e6
Pbgs (Porphobilinogen synthase) | 1 | 3.48e6 | 3.93e6 | 3.94e6
ttk (tramtrack) | 1 | 3.50e6 | 3.99e6 | 3.97e6
ttk (tramtrack) | 2 | 3.71e6 | 4.31e6 | 4.06e6
alpha-Man-IIb (alpha-Mannosidase class II b) | 1 | 3.67e6 | 4.22e6 | 4.04e6
CG7222 | 1 | 3.70e6 | 4.41e6 | 3.99e6
CG34176 | 1 | 3.56e6 | 3.94e6 | 4.12e6
CG14881 | 1 | 3.30e6 | 3.75e6 | 3.72e6
CG16826 | 1 | 3.48e6 | 4.02e6 | 3.89e6
wdn (wings down) | 1 | 3.48e6 | 3.98e6 | 3.92e6
CG12920 | 1 | 3.70e6 | 4.20e6 | 4.07e6
CG7910 | 1 | 3.49e6 | 4.01e6 | 3.93e6
CG1941 | 1 | 3.49e6 | 3.91e6 | 4.01e6
NimC2 (Nimrod C2) | 1 | 3.62e6 | 4.04e6 | 4.15e6
Snap25 (Synaptosomal-associated protein 25kDa) | 1 | 3.58e6 | 3.97e6 | 4.14e6
Snap25 (Synaptosomal-associated protein 25kDa) | 2 | 3.56e6 | 3.96e6 | 4.11e6
Syx18 (Syntaxin 18) | 1 | 3.55e6 | 4.09e6 | 3.96e6
jigr1 (jing interacting gene regulatory 1) | 1 | 3.69e6 | 4.08e6 | 4.23e6
jigr1 (jing interacting gene regulatory 1) | 2 | 3.47e6 | 3.98e6 | 3.85e6
jigr1 (jing interacting gene regulatory 1) | 3 | 3.62e6 | 4.11e6 | 4.04e6
